Data as given in article PMC6667623, “Regulation of Glutarate Catabolism by GntR Family Regulator CsiR and LysR Family Regulator GcdR in Pseudomonas putida KT2440” (mBio, 2019).

Legend:
[1] = target: T1, CsiR (Pseudomonas putida KT2440) (UniProt Q88IU1); test: DNase I footprinting; conditions: 1 ug CsiR, 400 ng probe; 10 mM Tris-HCl pH 7.4, 50 mM KCl, 0.5 mM EDTA, 10% glycerol, 1 mM DTT; 30 C, 30 min; 6% native PAGE at 4 C; recombinant protein; residues 1-231; protein details: His6 (pETDuet-1, BamHI/HindIII); label: FAM (M13F-FAM primer); probe letters rebuilt from the primers and the genome; part of a longer …
T1 sequence: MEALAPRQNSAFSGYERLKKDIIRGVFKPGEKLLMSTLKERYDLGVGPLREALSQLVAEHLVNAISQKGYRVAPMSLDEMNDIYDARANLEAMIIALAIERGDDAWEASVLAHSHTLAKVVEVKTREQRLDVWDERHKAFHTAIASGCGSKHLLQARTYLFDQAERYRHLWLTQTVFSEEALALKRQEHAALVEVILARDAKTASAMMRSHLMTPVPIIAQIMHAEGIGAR

[2] = target: T1, CsiR (Pseudomonas putida KT2440); test: EMSA; conditions: 5-fold molar excess CsiR, prevents binding, dose-dependent 10-120 mM, 10 mM Tris-HCl pH 7.4, 50 mM KCl, 0.5 mM EDTA, 10% glycerol, 1 mM DTT, 30 C, 30 min, 6% native PAGE at 4 C, recombinant protein, residues 1-231, protein details: His6 (pETDuet-1, BamHI/HindIII), label: none (SYBR green I stain), probe letters rebuilt from the primers and the genome
[3] = target: T2, GcdR (Pseudomonas putida KT2440) (UniProt Q88RH3); test: DNase I footprinting; conditions: 5 ug GcdR, 400 ng probe, two protected regions; 10 mM Tris-HCl pH 7.4, 50 mM KCl, 0.5 mM EDTA, 10% glycerol, 1 mM DTT; 30 C, 30 min; 6% native PAGE at 4 C; recombinant protein; label: FAM (M13F-FAM primer); probe letters rebuilt from the primers and the genome; part of a longer molecule
T2 sequence: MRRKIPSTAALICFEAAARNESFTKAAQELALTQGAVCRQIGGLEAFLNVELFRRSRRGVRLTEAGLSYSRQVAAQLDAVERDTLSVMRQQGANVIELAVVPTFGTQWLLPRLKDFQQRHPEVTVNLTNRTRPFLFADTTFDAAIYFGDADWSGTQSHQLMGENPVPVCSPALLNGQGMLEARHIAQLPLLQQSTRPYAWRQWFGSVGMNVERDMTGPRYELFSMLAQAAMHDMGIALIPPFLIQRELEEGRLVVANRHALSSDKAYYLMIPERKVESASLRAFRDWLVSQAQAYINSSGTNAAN

“GATCCTGTTCCTCAAAACGTTTTGCCGATCATACCGAAACCCTCTGCTGACGAAAAACAATGGACAAACACGAGTAGTGTCGTTGAAAAATAAAAATGTAGACATTTTCAGTTAGTGGCGATATTTTTACCTCGCCCGCACTGATCCAGGTCATGACCGGACGGCGCCATCTACTTTTTTAGCCAGGACACTGCC (double strand) [F1 footprinting probe (FAM)]”: binds [1].

“GATCCTGTTCCTCAAAACGTTTTGCCGATCATACCGAAACCCTCTGCTGACGAAAAACAATGGACAAACACGAGTAGTGTCGTTGAAAAATAAAAATGTAGACATTTTCAGTTAGTGGCGATATTTTTACCTCGCCCGCACTGATCCAGGTCATGACCGGACGGCGCCATCTACTTTTTTAGCCAGGACACTGCC (double strand) [F1 (csiR-csiD intergenic region)]”: binds more weakly ([2]; 40 mM L-2-hydroxyglutarate); binds more weakly ([2]; 40 mM glutarate).

“GCCGCCTCGAAGCAAATCAGGGCGGCGGTACTGGGGATCTTACGGCGCATGTACGTCAACCTCACTTGTAAGGCTGTCAATAAGGCGTTTTGCCGATTTACGGAGTGACAAAATATCACTAATCGGTGCGCAATCCTCGTTTGTCGCCGCAGCCGATCAGGCCTAGGCTCAAAGGCACAAGAAACTGACCCCTATTTCGAGGATTCGCTCATGGTCGGTAAAGCAAGTTTCAACTGGATCGACCCGTTGCTGCTGGATCA (double strand) [F2 footprinting probe (FAM)]”: binds [3].

Construct, isoform or probe ends are uncertain for at least one entry. For some of these results: The comparison behind a weaker result is the experiment's own reference, which may not be listed here. For some of these results: Where a protein sequence is shown, tags need not be part of it.
